Measured values taken from PMC11492869, “Dimerization and lysine substitution of melittin have differing effects on bacteria” (Frontiers in Pharmacology, 2024).
≈ marks a conversion by molar mass, not a printed value.

Test system: S. aureus ATCC 29213
Test: Minimum inhibitory concentration (modified CLSI broth microdilution)
Type: cell-based
Conditions: Staphylococcus aureus, ATCC29213, cation-adjusted MHB, 1 × 10^5 cells/well, 90 min incubation with peptide at 37°C, then growth monitored 20 h at OD630, Lambert and Pearson analysis, mean ± SD, at least three biological repeats
Description: For the antimicrobial peptide assays, a 10 mL starter culture was produced by taking single colonies from LB agar plates to inoculate in Lysogeny/Luria Broth (1% w/v Oxoid Tryptone, 0.5% w/v NaCl, 0.5% w/v Oxoid Yeast Extract, pH 7.0, Thermo Scientific Pty, Ltd., Sydney, Australia) for bacteria; S. aureus ATCC 29213 and E. coli ATCC 8739 were grown aerobically at 37°C in an orbital shaker (Minitron, Infors HT) at 200 rpm. After overnight incubation, 0.5–1.0 mL of the starter culture was used to inoculate fresh LB broth (20 mL), and its growth was monitored at 600 nm using a spectrophotometer (model Varian Cary 50 Bio UV-Vis). Bacteria were harvested during the late exponential growth phase, and CFUs/mL were determined using the growth curve data set that correlated OD600 to CFUs/mL.
Antibacterial assays were undertaken to determine the minimum inhibitory concentration (MIC), the minimum bactericidal concentration (MBC), and the level of membrane disruption of each of the antimicrobial peptides (AMPs) and multimerized AMPs. For each bacterium, a stock solution (2 × 10^6 cells/mL) in cation-adjusted Mueller Hinton Broth (MHB) was made, and an aliquot was incubated with AMPs within 15 min from viable cell count and stock preparation. […] After the 90-min incubation period, the antimicrobial activity (MIC and MBC) was determined as follows: […]

For `CN[C@H](CC(C)C)C(=O)N[C@H]1C(=O)N[C@@H](CC(N)=O)C(=O)N[C@H]2C(=O)N[C@H]3C(=O)N[C@H](C(=O)N[C@H](C(=O)O)c4cc(O)cc(O)c4-c4cc3ccc4O)[C@H](O)c3ccc(c(Cl)c3)Oc3cc2cc(c3O[C@@H]2O[C@H](CO)[C@@H](O)[C@H](O)[C@H]2O[C@H]2C[C@](C)(N)[C@H](O)[C@H](C)O2)Oc2ccc(cc2Cl)[C@H]1O` [Vancomycin], the MIC was 1.8 ± 0.4 µM (≈ 2.61 µg/mL).
